Data from article PMC2906515.
No constants are given. Whether binding was seen depends on the method and setting. Binding seen in cells or lysates may run through a third protein. Some entries that bind do so weakly or less than the wild type. Sequences can lack the tags named with a protein.

Protein sequences, listed by entry. Tags and fused reporters are not part of them.
UniProt P09216: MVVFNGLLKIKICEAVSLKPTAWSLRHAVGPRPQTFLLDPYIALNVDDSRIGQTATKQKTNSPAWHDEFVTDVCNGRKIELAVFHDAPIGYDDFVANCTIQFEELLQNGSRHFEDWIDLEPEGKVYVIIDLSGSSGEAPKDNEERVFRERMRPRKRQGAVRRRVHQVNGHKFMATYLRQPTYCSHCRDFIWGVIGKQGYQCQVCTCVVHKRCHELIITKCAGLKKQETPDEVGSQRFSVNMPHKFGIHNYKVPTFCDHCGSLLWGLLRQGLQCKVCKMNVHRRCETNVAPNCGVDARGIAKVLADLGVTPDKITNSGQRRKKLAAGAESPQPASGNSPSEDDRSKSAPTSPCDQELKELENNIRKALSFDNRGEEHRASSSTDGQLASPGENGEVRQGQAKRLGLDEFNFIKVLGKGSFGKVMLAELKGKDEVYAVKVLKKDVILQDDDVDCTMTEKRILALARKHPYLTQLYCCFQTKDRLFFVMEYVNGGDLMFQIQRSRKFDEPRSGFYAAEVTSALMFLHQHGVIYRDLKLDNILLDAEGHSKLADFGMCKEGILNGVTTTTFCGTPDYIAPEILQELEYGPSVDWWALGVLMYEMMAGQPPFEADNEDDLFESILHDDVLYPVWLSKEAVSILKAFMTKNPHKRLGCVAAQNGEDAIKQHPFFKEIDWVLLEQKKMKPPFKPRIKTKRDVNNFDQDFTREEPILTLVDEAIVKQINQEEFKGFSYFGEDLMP

Biological target: T1, MBP-TRPV4-Ct (C-terminal cytoplasmic domain of TRPV4 fused with MBP) (UniProt Q9ERZ8)
T1 sequence: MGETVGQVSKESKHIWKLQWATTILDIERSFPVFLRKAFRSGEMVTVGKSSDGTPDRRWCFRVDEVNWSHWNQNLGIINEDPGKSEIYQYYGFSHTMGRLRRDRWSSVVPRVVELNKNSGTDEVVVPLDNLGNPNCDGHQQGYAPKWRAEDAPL
Assay: pull-down; MBP fusion protein on amylose resin incubated with soluble porcine brain extract or soluble F11 extract (1 mg/ml), 1 hour at RT, PEM-S buffer (50 mM PIPES pH 6.8, 100 mM NaCl, 1 mM EGTA, 0.2 mM MgCl2), in the presence or absence of Ca2+; eluted with maltose; immunoblot; only the target purified

- binding: binds
Substance: PKCε, endogenous in F11 cells (from UniProt P09216 1-737) (enzyme)
